Several values for one entry are separate records, joined by “and”; a condition that tells them apart may be missing. Equal values may be shown once.
Assays:
NA12878/101X gene panel = assay: Sequencing-by-synthesis run with additive in Cleave reagent, NA12878/101X gene panel as template; settings: for % @ Q25 (MFST) / % BC / % bead retention / % live / % mapped / % perfect / % polyclonal / Avg read length / Output (Mb) / lead: additive in Cleave reagent, NA12878/101X gene panel
PhiX shot gun library = assay: Sequencing-by-synthesis run with additive in Cleave reagent, PhiX shot gun library as template
[1] = second error rate column (values 100-fold of the first)

Compound | % @ Q25 (MFST) (NA12878/101X gene panel) | % BC (NA12878/101X gene panel) | % bead retention (NA12878/101X gene panel) | % live (NA12878/101X gene panel) | % mapped (NA12878/101X gene panel) | % perfect (NA12878/101X gene panel) | % polyclonal (NA12878/101X gene panel) | Avg read length (NA12878/101X gene panel) | Output (Mb) (NA12878/101X gene panel) | lead (NA12878/101X gene panel) | % @ Q25 (MFST) (PhiX shot gun library; additive in Cleave reagent) | % BC (PhiX shot gun library; additive in Cleave reagent) | % bead retention (PhiX shot gun library; additive in Cleave reagent) | % live (PhiX shot gun library; additive in Cleave reagent) | % mapped (PhiX shot gun library; additive in Cleave reagent) | % perfect (PhiX shot gun library; additive in Cleave reagent) | % polyclonal (PhiX shot gun library; additive in Cleave reagent) | Q @ 85% (MFST) (PhiX shot gun library; additive in Cleave reagent) | avg read length (PhiX shot gun library; additive in Cleave reagent) | lead (PhiX shot gun library; additive in Cleave reagent) | further results
O=C1O[C@H]([C@@H](O)CO)C(O)=C1O [Ascorbic Acid] | 85% and 84% | 72% and 74% and 75% | 97% and 96% and 95% | 51% and 54% and 58% | 32% and 34% and 33% and 37% and 36% | 66% and 68% and 67% | 29% and 28% | 104.49 and 105.33 and 106.30 and 103.359 and 103.709 and 104.208 | 1228462334 Mb and 1283575472 Mb and 1300734915 Mb and 1327958543 Mb and 1369125970 Mb and 1378585341 Mb | 0.4249 and 0.3632 and 0.3617 and 0.4135 and 0.3825 and 0.3922 | 0.8026% and 0.8114% and 0.7956% and 0.7999% | 71% and 70% and 67% and 68% | 95% and 96% and 97% | 50% and 47% and 43% | 36% and 33% and 26% and 27% | 62% and 60% and 54% and 56% | 29% and 30% and 40% and 37% | 24.0 | 113.1077 and 113.9125 and 104.82 and 104.50 | 0.4192 and 0.4038 and 0.3506 and 0.4216 | average read length (NA12878/101X gene panel; filtered according to desired quality score, 137 and 157 cycle sequencing, both libraries): 100-115 bp; error rate (MFST) (PhiX shot gun library; [1]): 0.8847 and 0.9683 and 1.181 and 1.128
CCC(=O)O.c1ccc2[nH]ccc2c1 [IPA, indole propionic acid] | 84% | 73% | 98% and 97% | 58% and 56% and 55% | 32% and 31% | 65% | 33% | 96.20 and 97.14 and 96.66 | 1140366855 Mb and 1138434690 Mb and 1136807136 Mb | 0.3855 and 0.3864 and 0.4093 | 0.8026% and 0.8114% and 0.8165% and 0.8104% and 0.7971% and 0.7987% | 66% and 65% and 68% and 67% | 97% and 98% and 96% | 38% and 37% and 42% and 41% and 39% | 24% and 28% and 27% | 58% and 59% and 63% and 60% | 35% and 25% and 31% and 32% and 30% | 24.0 | 93.1 and 94.0 and 96.6 and 97.7 and 89.3 and 90.0 | 0.3421 and 0.3039 and 0.3305 and 0.3075 and 0.3116 and 0.3374 | Beads/tile (PhiX shot gun library; additive in Cleave reagent): 416846.77 and 389958.05 and 399497.89 and 428698.34 and 419704.92 and 419932.48; lag (PhiX shot gun library; additive in Cleave reagent): 0.08923 and 0.1306 and 0.1059 and 0.1408 and 0.1183 and 0.09381; error rate (MFST) (PhiX shot gun library; first error rate column (values as fraction)): 0.01011 and 0.009678 and 0.008427 and 0.009399 and 0.009712 and 0.009516; error rate (MFST) (PhiX shot gun library; [1]): 1.011 and 0.9678 and 0.8427 and 0.9399 and 0.9712 and 0.9516
